Source: PubChem BioAssay AID651768 (National Center for Advancing Translational Sciences (NCATS), 2012)
The whole screen tested about 360,000 compounds, of which about 1,700 (0.47%) were called active. All entries are inconclusive by the source's own rule. Clear calls are listed elsewhere. Calls come from the whole dose curve; as a rule, active = well fitted inhibition curve with a large enough effect; inconclusive = small, poorly fitted or top-dose-only effect; inactive = no such curve, though single readings can be large or run the other way.

By UniProt entry, the sequences of proteins in these tests, tags left out.
UniProt Q14191, whole entry: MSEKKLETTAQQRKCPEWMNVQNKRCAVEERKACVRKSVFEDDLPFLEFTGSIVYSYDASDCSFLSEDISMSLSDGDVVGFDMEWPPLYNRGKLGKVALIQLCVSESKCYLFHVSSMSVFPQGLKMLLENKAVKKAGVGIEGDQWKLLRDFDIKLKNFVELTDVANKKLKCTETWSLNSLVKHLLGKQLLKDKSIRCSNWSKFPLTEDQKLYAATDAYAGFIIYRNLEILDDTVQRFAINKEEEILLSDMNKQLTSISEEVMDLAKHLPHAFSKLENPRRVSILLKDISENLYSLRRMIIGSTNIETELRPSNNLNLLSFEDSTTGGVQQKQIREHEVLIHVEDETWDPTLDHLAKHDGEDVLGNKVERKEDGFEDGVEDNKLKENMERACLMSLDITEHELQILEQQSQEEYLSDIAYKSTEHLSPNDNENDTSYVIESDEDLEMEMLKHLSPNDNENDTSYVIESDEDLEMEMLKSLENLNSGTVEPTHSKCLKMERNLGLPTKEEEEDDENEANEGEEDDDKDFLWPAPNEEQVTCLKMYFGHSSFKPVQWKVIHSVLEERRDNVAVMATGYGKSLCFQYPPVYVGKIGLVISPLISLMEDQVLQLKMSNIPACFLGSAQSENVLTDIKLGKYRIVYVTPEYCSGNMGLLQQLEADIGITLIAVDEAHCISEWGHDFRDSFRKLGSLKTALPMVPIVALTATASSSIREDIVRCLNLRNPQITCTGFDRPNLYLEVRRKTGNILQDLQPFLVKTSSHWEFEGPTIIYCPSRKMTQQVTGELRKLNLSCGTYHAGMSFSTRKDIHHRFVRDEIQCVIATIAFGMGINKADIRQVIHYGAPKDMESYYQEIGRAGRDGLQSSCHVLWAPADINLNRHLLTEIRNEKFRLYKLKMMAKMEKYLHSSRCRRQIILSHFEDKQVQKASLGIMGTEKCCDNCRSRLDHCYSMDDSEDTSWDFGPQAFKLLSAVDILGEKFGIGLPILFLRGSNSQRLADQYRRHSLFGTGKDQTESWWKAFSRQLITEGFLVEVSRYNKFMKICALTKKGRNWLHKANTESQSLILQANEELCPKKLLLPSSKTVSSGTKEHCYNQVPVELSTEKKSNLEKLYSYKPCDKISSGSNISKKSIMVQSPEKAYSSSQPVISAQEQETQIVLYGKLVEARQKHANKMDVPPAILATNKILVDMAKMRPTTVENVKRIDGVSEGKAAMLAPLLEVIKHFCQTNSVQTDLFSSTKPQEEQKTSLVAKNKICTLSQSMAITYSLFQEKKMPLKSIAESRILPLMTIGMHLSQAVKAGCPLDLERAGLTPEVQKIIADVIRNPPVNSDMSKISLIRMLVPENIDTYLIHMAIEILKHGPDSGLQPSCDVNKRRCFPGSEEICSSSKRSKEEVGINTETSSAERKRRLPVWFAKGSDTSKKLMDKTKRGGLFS

target: Bifunctional 3'-5' exonuclease/ATP-dependent helicase WRN (Homo sapiens) (UniProt Q14191); assay: qHTS for Inhibitors of WRN Helicase; details: WRN helicase unwinding, fluorescent forked duplex, kinetic; activity change, negative = inhibition: at 114 µM (top of the series); note: nearly all actives have a fitted effect of over 55% in size
Excerpt: Inhibition of DNA repair is proposed as a strategy for combating cancer. Synthetic lethality is an approach that exploits preexisting DNA repair deficiencies in certain tumors to develop inhibitors of DNA repair pathways that compensate for the tumor-associated DNA repair deficiency. […] We will employ an optimized high-throughput screening assay that utilizes a fluorescence intensity modulation scheme with a fluorophore and quencher positioned near one another within a duplex deoxyoligonucleotide that contains a single forked structure. […]
Three muL of reagents (buffer in columns 3 and 4 as negative controls; WRN at 20 nM final concentration in columns 1 and 2 as positive controls; columns 5-48 as test reactions) will be dispensed into a 1536-well Greiner black plate via solenoid-valve based nanoliter dispensers. […] Plates will be incubated for 15 min at room temperature, and then 1 µL of substrate (100 nM forked duplex oligonucleotide and 2 mM ATP final concentrations) will be added to start reaction, and plate will be transferred into a ViewLux high-throughput CCD imager where reaction progress is measured in kinetic mode using standard red-fluorescence optics (excitation filter 525 nm, emission filter 598 nm).
% is set by controls: 0 for no effect and ±100 for the full control effect; potency is the fitted concentration of half-maximal effect.

Row | Structure (SMILES) | Potency | activity change, negative = inhibition
1 | CCOc1ccc(C)cc1CN(CCCl)CCCl | inconclusive: 10 µM | 
2 | O=C1C(O)=C([N+](=O)[O-])C(=O)C(O)=C1[N+](=O)[O-] |  | inconclusive: -78.5%
